In the supplement of paper PMC11006884:
What follows is the remainder of the data, with few or none of the targets with a hit. The data scatter; read single values as rough. This is a selection; strong and weak results do not stand in their true shares.

The targets below were run with COC(=O)/C=C/c1ccccc1 [methyl cinnamate] (assay: log2 ratio of iodoacetamide-alkyne labeling of the cysteine site, DMSO over compound (competition); higher = stronger covalent engagement of the cysteine by the compound, active = 1 or more). Details: 500 µM; treatment time 1 h; system: HEK293T cell lysate.
Method in brief: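 The log2 competition ratio per cysteine is defined as mean reporter intensity in control channels over mean reporter intensity in compound channels. Lysate from HEK293T cells (2 mg/mL) received electrophile (500 µM) or vehicle for 1 h at ambient temperature, followed by iodoacetamide alkyne for 1 h. Samples were clicked to sCIP-TMT reagents, pooled, trypsin-digested overnight at 37 °C, streptavidin-enriched, acid-eluted and run on Orbitrap Eclipse LC-MS/MS with FAIMS, with quantification in FragPipe. Three replicates with duplicate channels were used, and any cysteine quantified in only one replicate was excluded.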

log2 ratio of iodoacetamide-alkyne labeling, inactive:
AHNAK C1833 (UniProt Q09666) 0.173
TCOF1 C1298 (UniProt Q13428) 0.213
EIF4G1 C934 (UniProt Q04637) 0.0434
PRDX1 C71 (UniProt Q06830) 0.192
CDC16 C46 (UniProt Q13042) -0.109
UniProt Q09028_C167 0.324
SNTA1 C239 (UniProt Q13424) 0.133
PPAT C496 (UniProt Q06203) 0.249
OS9 C246 (UniProt Q13438) 0.106
UniProt Q13242_C80 -0.00719
TRIM28 C65 (UniProt Q13263) -0.18
VAC14 C114 (UniProt Q08AM6) 0.216
NSUN2 C673 (UniProt Q08J23) 0.193
CTBP1 C134 (UniProt Q13363) -0.183
UniProt Q12948_C550 0.241
TARBP1 C24 (UniProt Q13395) -0.293
GTF3C1 C431 (UniProt Q12789) 0.164
GALNT2 C229 (UniProt Q10471) -0.164
TARBP1 C483 (UniProt Q13395) -0.0748
TLE3 C528 (UniProt Q04726) 0.155
CTBP1 C312 (UniProt Q13363) -0.0767
UniProt Q13155_C306 0.198

Pulled one by one from the entries so far (two):
log2 ratio of iodoacetamide-alkyne labeling, inactive:
SNTA1 C239 (UniProt Q13424) 0.133
UniProt Q12948_C550 0.241
